This is one part of the list. Repeats are few or missing, and single values can be far off.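 Cells were imaged in 1,536-well plates, and nuclei stained with an antibody against cleaved PARP were counted against all DNA-stained nuclei to give the apoptosis fraction. Screening doses were chosen to leave most cells alive, and resting and induced cleaved-PARP levels differ strongly between cell lines.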
Key:
Test in all cases: cleaved PARP positive nuclei fraction relative to DMSO control; melanoma cells; higher = more apoptosis
Settings in all cases: library dose: low library concentration; 72 h
[1] = system: 501Mel
[2] = system: A101D
[3] = system: A2058
[4] = system: A375
[5] = system: C32
[6] = system: CBRC008 (line from a melanoma biopsy)
[7] = system: CBRC013 (line from a melanoma biopsy)
[8] = system: CBRC014 (line from a melanoma biopsy)
[9] = system: CBRC016 (line from a melanoma biopsy)
[10] = system: CBRC017 (line from a melanoma biopsy)
[11] = system: COLO792
[12] = system: COLO800
[13] = system: COLO829
[14] = system: G361
[15] = system: IPC-298
[16] = system: IST-MEL1
[17] = system: LB2518-MEL
[18] = system: LOXIMVI
[19] = system: MEL-HO

Row | Structure (SMILES) | cleaved PARP positive nuclei fraction [1] [%] | cleaved PARP positive nuclei fraction [2] [%] | cleaved PARP positive nuclei fraction [3] [%] | cleaved PARP positive nuclei fraction [4] [%] | cleaved PARP positive nuclei fraction [5] [%] | cleaved PARP positive nuclei fraction [6] [%] | cleaved PARP positive nuclei fraction [7] [%] | cleaved PARP positive nuclei fraction [8] [%] | cleaved PARP positive nuclei fraction [9] [%] | cleaved PARP positive nuclei fraction [10] [%] | cleaved PARP positive nuclei fraction [11] [%] | cleaved PARP positive nuclei fraction [12] [%] | cleaved PARP positive nuclei fraction [13] [%] | cleaved PARP positive nuclei fraction [14] [%] | cleaved PARP positive nuclei fraction [15] [%] | cleaved PARP positive nuclei fraction [16] [%] | cleaved PARP positive nuclei fraction [17] [%] | cleaved PARP positive nuclei fraction [18] [%] | cleaved PARP positive nuclei fraction [19] [%]
1 | CN1CCN(c2ccc3nc(-c4c(N)c5c(F)cccc5[nH]c4=O)[nH]c3c2)CC1 [Dovitinib] + O=C(O)c1ccc(-c2c[nH]c3ncc(-c4ccccc4)cc23)cc1C1CCCC1 [GSK650394] (first compound 0.1 µM, partner dose 0.16 µM) | 198 | 107 | 139 | 179 | 147 | 166 | 134 | 110 | 168 | 179 | 101 | 145 | 219 | 120 | 99.7 | 96.6 | 97.9 | 197 | 74.6
2 | CNC(=O)c1cc(Oc2ccc(NC(=O)Nc3ccc(Cl)c(C(F)(F)F)c3)cc2)ccn1 [sorafenib] + O=C(O)c1ccc(-c2c[nH]c3ncc(-c4ccccc4)cc23)cc1C1CCCC1 [GSK650394] (first compound 0.4 µM, partner dose 0.16 µM) | 71 | 166 | 93.2 | 31.9 | 106 | 117 | 145 | 82.3 | 178 | 244 | 49.5 | 95 | 91.1 | 113 | 187 | 77.3 | 77.9 | 80.1 | 266
3 | Nc1ncn([C@H]2C[C@H](O)[C@@H](CO)O2)c(=O)n1 [decitabine] + C=CCn1c(=O)c2cnc(Nc3ccc(N4CCN(C)CC4)cc3)nc2n1-c1cccc(C(C)(C)O)n1 [MK1775] (first compound 0.1 µM, partner dose 0.02 µM) | 46.6 | 209 | 123 | 40.8 | 197 | 126 | 87.6 | 105 | 214 | 135 | 57 | 52.5 | 104 | 135 | 278 | 72.8 | 37.1 | 24.3 | 83.3
4 | Nc1nc(F)nc2c1ncn2[C@@H]1O[C@H](CO)[C@@H](O)[C@@H]1O [fludarabine] + OCCn1cc(-c2cnc3nnn(Cc4ccc5ncccc5c4)c3n2)cn1 [PF04217903] (first compound 0.2 µM, partner dose 1 µM) | 1930 | 88.4 | 106 | 8270 | 149 | 130 | 331 | 87.3 | 108 | 218 | 195 | 59.4 | 186 | 112 | 48.6 | 53.2 | 67.6 | 24 | 48.8
5 | CO[C@H]1C[C@@H]2CC[C@@H](C)[C@@](O)(O2)C(=O)C(=O)N2CCCC[C@H]2C(=O)O[C@H]([C@H](C)C[C@@H]2CC[C@@H](OCCO)[C@H](OC)C2)CC(=O)[C@H](C)/C=C(\C)[C@@H](O)[C@@H](OC)C(=O)[C@H](C)C[C@H](C)/C=C/C=C/C=C/1C [everolimus] + COc1cc2c(Oc3ccc4[nH]c(C)cc4c3F)ncnc2cc1OCCCN1CCCC1 [cediranib] (first compound 0.02 µM, partner dose 0.4 µM) | 303 | 157 | 163 | 253 | 40.5 | 133 | 76.3 | 90.3 | 41.5 | 129 | 126 | 164 | 175 | 107 | 143 | 72 | 71.3 | 139 | 90.1
6 | C[C@@H](Oc1cc(-c2cnn(C3CCNCC3)c2)cnc1N)c1c(Cl)ccc(F)c1Cl [Crizotinib] + COc1cc2c(Oc3ccc4[nH]c(C)cc4c3F)ncnc2cc1OCCCN1CCCC1 [cediranib] (first compound 0.2 µM, partner dose 0.4 µM) | 86.5 | 77.4 | 106 | 48.7 | 52.3 | 47.6 | 156 | 94.8 | 97.3 | 96.3 | 114 | 63.4 | 116 | 69.1 | 70.2 | 66.4 | 109 | 57.7 | 62.7
7 | CO[C@H]1C[C@@H]2CC[C@@H](C)[C@@](O)(O2)C(=O)C(=O)N2CCCC[C@H]2C(=O)O[C@H]([C@H](C)C[C@@H]2CC[C@@H](OCCO)[C@H](OC)C2)CC(=O)[C@H](C)/C=C(\C)[C@@H](O)[C@@H](OC)C(=O)[C@H](C)C[C@H](C)/C=C/C=C/C=C/1C [everolimus] + NC(=O)Nc1cc(-c2cccc(F)c2)sc1C(=O)N[C@H]1CCCNC1 [AZD7762] (first compound 0.02 µM, partner dose 0.02 µM) | 227 | 117 | 62.4 | 12000 | 207 | 295 | 97.9 | 105 | 173 | 69.6 | 27.7 | 242 | 106 | 159 | 117 | 112 | 252 | 399 | 182
8 | CN1CCN(c2ccc3nc(-c4c(N)c5c(F)cccc5[nH]c4=O)[nH]c3c2)CC1 [Dovitinib] + CC(C)(C)c1cnc(CSc2cnc(NC(=O)C3CCNCC3)s2)o1 [SNS-032] (first compound 0.1 µM, partner dose 0.01 µM) | 81.2 | 44.8 | 174 | 150 | 60.7 | 159 | 176 | 90.8 | 135 | 111 | 91.1 | 65.1 | 129 | 53.8 | 90.3 | 47 | 48.7 | 121 | 455
9 | CC(C)C[C@H](NC(=O)[C@H](Cc1ccccc1)NC(=O)c1cnccn1)B(O)O [Bortezomib] + COc1cc(Nc2ncc(F)c(Nc3ccc4c(n3)NC(=O)C(C)(C)O4)n2)cc(OC)c1OC [Tamatinib] (first compound 0.001 µM, partner dose 0.4 µM) | 826 | 247 | 74.6 | 341 | 86.1 | 1340 | 85.8 | 434 | 388 | 253 | 169 | 87.7 | 91.7 | 2160 | 83.1 | 343 | 383 | 112 | 70.8
10 | C=C(c1ccc(C(=O)O)cc1)c1cc2c(cc1C)C(C)(C)CCC2(C)C [Bexarotene] + Cc1cc(N2CCOCC2)cc2[nH]c(-c3c(NC[C@@H](O)c4cccc(Cl)c4)cc[nH]c3=O)nc12 [BMS536924] (first compound 2 µM, partner dose 0.2 µM) | 90.6 | 41 | 11.3 | 39.2 | 82 | 183 | 148 | 118 | 91 | 95.5 | 92.5 | 119 | 146 | 131 | 99.3 | 37.2 | 100 | 99.8 | 77.6
11 | Cn1c(=O)n(-c2ccc(C(C)(C)C#N)cc2)c2c3cc(-c4cnc5ccccc5c4)ccc3ncc21 + CC1(C)NC(=O)N(c2ccc([N+](=O)[O-])c(C(F)(F)F)c2)C1=O [nilutamide] (first compound 0.004 µM, partner dose 1 µM) | 79.4 | 340 | 96.2 | 88.7 | 127 | 79.1 | 90.3 | 96 | 48.4 | 95.8 | 106 | 89.6 | 76.8 | 158 | 49.2 | 170 | 134 | 55.4 | 84.8
12 | Nc1nc(F)nc2c1ncn2[C@@H]1O[C@H](CO)[C@@H](O)[C@@H]1O [fludarabine] + COc1cc2c(Oc3ccc4[nH]c(C)cc4c3F)ncnc2cc1OCCCN1CCCC1 [cediranib] (first compound 0.2 µM, partner dose 0.4 µM) | 4080 | 43.3 | 50.9 | 2690 | 31.2 | 164 | 182 | 109 | 145 | 131 | 110 | 30.1 | 105 | 113 | 94.7 | 68.8 | 28.8 | 32 | 44.9
13 | Nc1nc(F)nc2c1ncn2[C@@H]1O[C@H](CO)[C@@H](O)[C@@H]1O [fludarabine] + CC1(C)NC(=O)N(c2ccc([N+](=O)[O-])c(C(F)(F)F)c2)C1=O [nilutamide] (first compound 0.2 µM, partner dose 1 µM) | 1310 | 121 | 128 | 7800 | 74.2 | 51.8 | 813 | 91.7 | 134 | 98.6 | 114 | 81.2 | 44.9 | 123 | 194 | 73.3 | 91.1 | 51.4 | 36.5
14 | Nc1ccn([C@@H]2O[C@H](CO)[C@@H](O)C2(F)F)c(=O)n1 [gemcitabine] + NC(=O)Nc1cc(-c2cccc(F)c2)sc1C(=O)N[C@H]1CCCNC1 [AZD7762] (first compound 0.0004 µM, partner dose 0.02 µM) | 196 | 106 | 43.3 | 133 | 140 | 253 | 105 | 218 | 291 | 178 | 213 | 115 | 213 | 57.8 | 338 | 139 | 106 | 72.4 | 168
15 | CCCS(=O)(=O)Nc1ccc(F)c(C(=O)c2c[nH]c3ncc(Cl)cc23)c1F + Cn1cncc1[C@@](N)(c1ccc(Cl)cc1)c1ccc2c(c1)c(-c1cccc(Cl)c1)cc(=O)n2C [tipifarnib] (first compound 0.08 µM, partner dose 0.01 µM) | 198 | 199 | 83.8 | 197 | 78.1 | 267 | 117 | 241 | 95.2 | 79.9 | 142 | 133 | 144 | 72.9 | 97.3 | 91.7 | 190 | 35.9 | 72.5
16 | Nc1ncn([C@H]2C[C@H](O)[C@@H](CO)O2)c(=O)n1 [decitabine] + C[C@@H]1CCN(C(=O)CC#N)C[C@@H]1N(C)c1ncnc2[nH]ccc12 [CP690550] (first compound 0.1 µM, partner dose 1 µM) | 91.6 | 99.7 | 150 | 155 | 119 | 278 | 103 | 97.6 | 125 | 115 | 116 | 99.6 | 283 | 83.3 | 136 | 405 | 174 | 61.7 | 304
17 | CO[C@H]1C[C@@H]2CC[C@@H](C)[C@@](O)(O2)C(=O)C(=O)N2CCCC[C@H]2C(=O)O[C@H]([C@H](C)C[C@@H]2CC[C@@H](OCCO)[C@H](OC)C2)CC(=O)[C@H](C)/C=C(\C)[C@@H](O)[C@@H](OC)C(=O)[C@H](C)C[C@H](C)/C=C/C=C/C=C/1C [everolimus] + CC1(C)NC(=O)N(c2ccc([N+](=O)[O-])c(C(F)(F)F)c2)C1=O [nilutamide] (first compound 0.02 µM, partner dose 1 µM) | 273 | 100 | 75.8 | 277 | 105 | 561 | 69.6 | 92.2 | 162 | 119 | 150 | 174 | 108 | 72 | 29.8 | 153 | 127 | 78.6 | 129

A stretch from the list above, for reference:
Row | Structure (SMILES) | cleaved PARP positive nuclei fraction [1] [%] | cleaved PARP positive nuclei fraction [2] [%] | cleaved PARP positive nuclei fraction [3] [%] | cleaved PARP positive nuclei fraction [4] [%] | cleaved PARP positive nuclei fraction [5] [%] | cleaved PARP positive nuclei fraction [6] [%] | cleaved PARP positive nuclei fraction [7] [%] | cleaved PARP positive nuclei fraction [8] [%] | cleaved PARP positive nuclei fraction [9] [%] | cleaved PARP positive nuclei fraction [10] [%] | cleaved PARP positive nuclei fraction [11] [%] | cleaved PARP positive nuclei fraction [12] [%] | cleaved PARP positive nuclei fraction [13] [%] | cleaved PARP positive nuclei fraction [14] [%] | cleaved PARP positive nuclei fraction [15] [%] | cleaved PARP positive nuclei fraction [16] [%] | cleaved PARP positive nuclei fraction [17] [%] | cleaved PARP positive nuclei fraction [18] [%] | cleaved PARP positive nuclei fraction [19] [%]
10 | C=C(c1ccc(C(=O)O)cc1)c1cc2c(cc1C)C(C)(C)CCC2(C)C [Bexarotene] + Cc1cc(N2CCOCC2)cc2[nH]c(-c3c(NC[C@@H](O)c4cccc(Cl)c4)cc[nH]c3=O)nc12 [BMS536924] (first compound 2 µM, partner dose 0.2 µM) | 90.6 | 41 | 11.3 | 39.2 | 82 | 183 | 148 | 118 | 91 | 95.5 | 92.5 | 119 | 146 | 131 | 99.3 | 37.2 | 100 | 99.8 | 77.6
11 | Cn1c(=O)n(-c2ccc(C(C)(C)C#N)cc2)c2c3cc(-c4cnc5ccccc5c4)ccc3ncc21 + CC1(C)NC(=O)N(c2ccc([N+](=O)[O-])c(C(F)(F)F)c2)C1=O [nilutamide] (first compound 0.004 µM, partner dose 1 µM) | 79.4 | 340 | 96.2 | 88.7 | 127 | 79.1 | 90.3 | 96 | 48.4 | 95.8 | 106 | 89.6 | 76.8 | 158 | 49.2 | 170 | 134 | 55.4 | 84.8
12 | Nc1nc(F)nc2c1ncn2[C@@H]1O[C@H](CO)[C@@H](O)[C@@H]1O [fludarabine] + COc1cc2c(Oc3ccc4[nH]c(C)cc4c3F)ncnc2cc1OCCCN1CCCC1 [cediranib] (first compound 0.2 µM, partner dose 0.4 µM) | 4080 | 43.3 | 50.9 | 2690 | 31.2 | 164 | 182 | 109 | 145 | 131 | 110 | 30.1 | 105 | 113 | 94.7 | 68.8 | 28.8 | 32 | 44.9
13 | Nc1nc(F)nc2c1ncn2[C@@H]1O[C@H](CO)[C@@H](O)[C@@H]1O [fludarabine] + CC1(C)NC(=O)N(c2ccc([N+](=O)[O-])c(C(F)(F)F)c2)C1=O [nilutamide] (first compound 0.2 µM, partner dose 1 µM) | 1310 | 121 | 128 | 7800 | 74.2 | 51.8 | 813 | 91.7 | 134 | 98.6 | 114 | 81.2 | 44.9 | 123 | 194 | 73.3 | 91.1 | 51.4 | 36.5

From the supplement of paper PMC4604168 (melanoma cell lines)
